The results in this text go back to publication PMC5666316.

Protein sequences, listed by entry. Tags and fused reporters are not part of them.
UniProt Q9EPK8: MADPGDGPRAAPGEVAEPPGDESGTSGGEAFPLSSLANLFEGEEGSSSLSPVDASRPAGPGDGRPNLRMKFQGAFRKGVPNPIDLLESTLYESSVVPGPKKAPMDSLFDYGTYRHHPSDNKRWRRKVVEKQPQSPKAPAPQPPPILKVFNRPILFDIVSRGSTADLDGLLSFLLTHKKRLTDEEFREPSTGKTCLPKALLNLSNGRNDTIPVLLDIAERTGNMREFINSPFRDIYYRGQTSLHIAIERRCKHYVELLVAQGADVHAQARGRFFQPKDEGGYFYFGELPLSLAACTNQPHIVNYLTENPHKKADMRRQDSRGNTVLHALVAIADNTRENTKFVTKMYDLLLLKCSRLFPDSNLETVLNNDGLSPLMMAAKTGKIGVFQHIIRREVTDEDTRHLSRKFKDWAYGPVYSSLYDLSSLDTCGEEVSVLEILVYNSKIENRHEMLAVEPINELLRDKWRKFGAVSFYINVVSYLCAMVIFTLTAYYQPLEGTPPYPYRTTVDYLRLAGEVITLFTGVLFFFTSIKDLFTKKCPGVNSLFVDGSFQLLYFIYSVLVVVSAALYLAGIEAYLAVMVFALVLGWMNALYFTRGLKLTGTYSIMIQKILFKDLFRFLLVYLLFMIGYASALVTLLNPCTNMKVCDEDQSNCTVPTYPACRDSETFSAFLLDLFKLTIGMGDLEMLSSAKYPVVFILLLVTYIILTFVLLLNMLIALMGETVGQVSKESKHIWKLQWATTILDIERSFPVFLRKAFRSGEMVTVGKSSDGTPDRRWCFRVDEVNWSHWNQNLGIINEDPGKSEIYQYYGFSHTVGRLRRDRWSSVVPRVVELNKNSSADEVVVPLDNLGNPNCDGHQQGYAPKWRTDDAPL
UniProt P58391: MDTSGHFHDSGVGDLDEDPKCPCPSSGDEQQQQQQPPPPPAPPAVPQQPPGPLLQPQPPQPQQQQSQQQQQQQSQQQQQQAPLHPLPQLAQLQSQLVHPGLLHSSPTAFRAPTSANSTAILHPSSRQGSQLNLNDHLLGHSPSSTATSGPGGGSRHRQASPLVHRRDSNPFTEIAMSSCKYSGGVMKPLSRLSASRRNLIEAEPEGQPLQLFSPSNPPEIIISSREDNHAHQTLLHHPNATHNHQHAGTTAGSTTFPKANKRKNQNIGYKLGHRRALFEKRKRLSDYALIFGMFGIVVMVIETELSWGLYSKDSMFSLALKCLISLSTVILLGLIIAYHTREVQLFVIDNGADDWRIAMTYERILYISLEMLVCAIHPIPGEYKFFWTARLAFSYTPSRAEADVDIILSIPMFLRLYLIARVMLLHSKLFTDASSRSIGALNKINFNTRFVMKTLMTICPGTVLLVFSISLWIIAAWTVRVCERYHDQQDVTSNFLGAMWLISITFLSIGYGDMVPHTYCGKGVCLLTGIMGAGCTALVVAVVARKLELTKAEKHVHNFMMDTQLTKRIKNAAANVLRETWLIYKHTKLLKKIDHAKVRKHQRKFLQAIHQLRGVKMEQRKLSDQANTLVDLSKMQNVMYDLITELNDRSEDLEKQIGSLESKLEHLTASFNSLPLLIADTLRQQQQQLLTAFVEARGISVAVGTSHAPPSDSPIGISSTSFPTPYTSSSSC
UniProt P70605: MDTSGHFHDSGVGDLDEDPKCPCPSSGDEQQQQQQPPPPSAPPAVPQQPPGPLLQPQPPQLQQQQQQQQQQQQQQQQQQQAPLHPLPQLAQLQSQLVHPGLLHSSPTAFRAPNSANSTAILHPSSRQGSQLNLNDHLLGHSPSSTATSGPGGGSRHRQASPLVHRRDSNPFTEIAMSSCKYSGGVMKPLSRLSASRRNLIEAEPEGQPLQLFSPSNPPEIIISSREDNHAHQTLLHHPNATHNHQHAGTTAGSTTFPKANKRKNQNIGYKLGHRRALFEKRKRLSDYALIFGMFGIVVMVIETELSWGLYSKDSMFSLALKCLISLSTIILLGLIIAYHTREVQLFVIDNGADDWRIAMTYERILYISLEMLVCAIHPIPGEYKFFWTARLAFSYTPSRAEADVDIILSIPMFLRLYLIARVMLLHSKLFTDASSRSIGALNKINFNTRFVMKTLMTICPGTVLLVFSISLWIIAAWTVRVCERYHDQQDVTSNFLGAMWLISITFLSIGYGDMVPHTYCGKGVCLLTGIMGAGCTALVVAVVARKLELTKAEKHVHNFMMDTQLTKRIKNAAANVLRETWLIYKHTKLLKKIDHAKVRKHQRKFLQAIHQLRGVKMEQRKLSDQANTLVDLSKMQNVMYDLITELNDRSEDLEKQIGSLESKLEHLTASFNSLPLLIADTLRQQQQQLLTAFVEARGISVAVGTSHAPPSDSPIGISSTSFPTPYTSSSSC

No constants are given. Whether binding was seen depends on the method and setting. Binding seen in cells or lysates may run through a third protein. Some binding calls cover weakened binding; strength is not graded here.

The target of experiment [1] is CFP-tagged TRPV4 (wild type) (UniProt Q9EPK8). In words: FRET or BRET; acceptor photobleaching FRET in HEK cells co-expressing CFP-tagged TRPV4 and YFP-tagged KCa2.3 (wild type or deletions); negative control CFP and YFP as separate molecules, positive control YFP-CFP dimer. On the technique in general: BRET reads energy transfer from a luciferase to a nearby fluorophore.

In experiment [2] the target is TRPV4, endogenous in mouse arterial endothelial cells (mouse (endogenous in arterial ECs)) (UniProt Q9EPK8). In words: co-IP; co-immunoprecipitation from mouse ECs, normal and hypertensive mice; method not shown (Appendix).
Experiment [3] has the same target. In words: FRET or BRET; immuno-FRET on arterial sections from normotensive mice injected intravenously with AAV-Flt1-KCa2.3-17C or the AAV-Flt1 vector.
For experiment [4] the target is unchanged. In words: FRET or BRET; immuno-FRET with anti-TRPV4 and anti-KCa2.3 primary antibodies on arterial sections from mice: control, high-salt diet (8% NaCl), L-NNA intake, AngII delivery; also after AAV-Flt1-KCa2.3 or JNc-440 (1 mg/kg).
For experiment [5], the target named is KCa2.3, endogenous in mouse arterial endothelial cells (mouse (endogenous in arterial ECs)) (UniProt P58391). In words: co-IP; co-immunoprecipitation from mouse ECs, normal and hypertensive mice; method not shown (Appendix).
Experiment [6] addresses TRPV4, endogenous in mouse arterial endothelial cells (mouse (endogenous in arterial ECs)) (UniProt Q9EPK8). The description is as above. The source holds these as a separate data set.

On to “YFP-tagged KCa2.3 (wild type) (from UniProt P70605 1-732)”, for which the binding entry in experiment [1] is given as “binds”.
Turning to “KCa2.3, endogenous in mouse arterial endothelial cells (from UniProt P58391 1-732)”, the binding entry in experiment [2], in experiment [3] and in experiment [4] was “binds” in each case.

B1: KCa2.3-17C, the 17 amino acids in the C-terminal of KCa2.3 expressed from AAV-Flt1-KCa2.3-17C (peptide)
chain: RKLELTKAEKHVHNFMM
In the case of B1, in experiment [3], the binding result is given as “binds”.

B2: caveolin-1, endogenous in murine endothelial cells (protein, UniProt P49817 1-178)
chain: MSGGKYVDSEGHLYTVPIREQGNIYKPNNKAMADEVTEKQVYDAHTKEIDLVNRDPKHLNDDVVKIDFEDVIAEPEGTHSFDGIWKASFTTFTVTKYWFYRLLSTIFGIPMALIWGIYFAILSFLHIWAVVPCIKSFLIEIQCISRVYSIYVHTFCDPLFEAIGKIFSNIRISTQKEI
With B2, the binding entry in experiment [5] and in experiment [6] was “binds” each time.
